Reference: patent US20070191267A1, “Use of tyrosine kinase inhibitors for treating cerebral ischemia” (AB SCIENCE, priority 2003, published 2007)
Some entries share one result that the patent states for a list of compounds.

Biological target: c-Kit WT (UniProt P10721)
Assay: Ex vivo TK inhibition assay, C-Kit proliferation assay ([3H] thymidine incorporation)
Details: read-out: c-Kit WT IC50

Structure (SMILES)	IC50 [µM]
Cc1ccc(NC(=O)c2ccc(CN3CCN(C)CC3)cc2)cc1Nc1nc(-c2nccs2)cs1 [Compound 005, N-[3-([2,4′]Bithiazolyl-2′-ylamino)-4-methyl-phenyl]-4-(4-methyl-piperazin-1-ylmethyl)-benzamide]	< 10
Cc1ccc(NC(=O)c2ccc(CN3CCN(C)CC3)cc2)cc1Nc1nc(-c2cnccn2)cs1 [Compound 006, 4-(4-Methyl-piperazin-1-ylmethyl)-N-[4-methyl-3-(4-pyrazin-2-yl-thiazol-2-ylamino)-phenyl]-benzamide]	< 10
CCOC(=O)c1csc(Nc2cc(NC(=O)c3cccc(I)c3)ccc2C)n1 [Compound 007, 2-[5-(3-Iodo-benzoylamino)-2-methyl-phenylamino]-thiazole-4-carboxylic acid ethyl ester]	< 10
CCOC(=O)c1csc(Nc2cc(NC(=O)c3ccc(CN4CCN(C)CC4)cc3)ccc2C)n1 [Compound 008, 2-{2-Methyl-5-[4-(4methyl-piperazin-1-ylmethyl)-benzoylamino]-phenylamino}-thiazole-4-carboxylic acid ethyl ester]	< 10
COc1ccc(NC(=O)Nc2ccc(C)c(Nc3nc(-c4cccnc4)cs3)c2)cc1 [Compound 009, 1-(4-Methoxy-phenyl)-3-[4-methyl-3-(4-pyridin-3-yl-thiazol-2-ylamino)-phenyl]-urea]	< 10
Cc1ccc(NC(=O)Nc2ccc(Br)cc2)cc1Nc1nc(-c2cccnc2)cs1 [Compound 010, 1-(4-Bromo-phenyl)-3-[4-methyl-3-(4-pyridin-3-yl-thiazol-2-ylamino)-phenyl]-urea]	< 10
Cc1ccc(NC(=O)Nc2ccc(F)cc2)cc1Nc1nc(-c2cccnc2)cs1 [Compound 012, 1-(4-Fluoro-phenyl)-3-[4-methyl-3-(4-pyridin-3-yl-thiazol-2-ylamino)-phenyl]-urea]	< 10
COc1ccc(NC(=O)Nc2ccc(C)c(Nc3nc(-c4cccnc4)cs3)c2)c(OC)c1 [Compound 017, 1-(2,4-Dimethoxy-phenyl)-3-[4-methyl-3-(4-pyridin-3-yl-thiazol-2-ylamino)-phenyl]-urea]	< 10
Cc1ccc(NC(=O)Nc2c(C)noc2C)cc1Nc1nc(-c2cccnc2)cs1 [Compound 019, 1-(3,5-Dimethyl-isoxazol-4-yl)-3-[4-methyl-3-(4-pyridin-3-yl-thiazol-2-ylamino)-phenyl]-urea]	< 10
Cc1ccc(NC(=O)Nc2ccccc2I)cc1Nc1nc(-c2cccnc2)cs1 [Compound 020, 1-(2-Iodo-phenyl)-3-[4-methyl-3-(4-pyridin-3-yl-thiazol-2-ylamino)-phenyl]-urea]	< 10
Cc1ccc(NC(=O)Nc2ccc(OC(F)F)cc2)cc1Nc1nc(-c2cccnc2)cs1 [Compound 021, 1-(4-Difluoromethoxy-phenyl)-3-[4-methyl-3-(4-pyridin-3-yl-thiazol-2-ylamino)-phenyl]-urea]	< 10
Cc1ccc(NC(=O)Nc2ccccc2F)cc1Nc1nc(-c2cccnc2)cs1 [Compound 023, 1-(2-Fluoro-phenyl)-3-[4-methyl-3-(4-pyridin-3-yl-thiazol-2-ylamino)-phenyl]-urea]	< 10
Cc1ccc(NC(=O)Nc2ccccc2Cl)cc1Nc1nc(-c2cccnc2)cs1 [Compound 024, 1-(2-Chloro-phenyl)-3-[4-methyl-3-(4-pyridin-3-yl-thiazol-2-ylamino)-phenyl]-urea]	< 10
Cc1ccc(NC(=O)Nc2cccc(F)c2)cc1Nc1nc(-c2cccnc2)cs1 [Compound 025, 1-(3-Fluoro-phenyl)-3-[4-methyl-3-(4-pyridin-3-yl-thiazol-2-ylamino)-phenyl]-urea]	< 10
Cc1ccc(NC(=O)Nc2ccc(C)c(Nc3nc(-c4cccnc4)cs3)c2)cc1 [Compound 026, 3-[4-Methyl-3-(4-pyridin-3-yl-thiazol-2-ylamino)-phenyl]-3-p-tolyl-urea]	< 10
Cc1ccc(NC(=O)c2cccc(Br)c2)cc1Nc1nc(-c2cccnc2)cs1 [Compound 028, 3-Bromo-N-[4-methyl-3-(4-pyridin-3-yl-thiazol-2-ylamino)-phenyl]-benzamide]	< 10
Cc1ccc(NC(=O)c2cccc(I)c2)cc1Nc1nc(-c2cccnc2)cs1 [Compound 029, 3-Iodo-N-[4-methyl-3-(4-pyridin-3-yl-thiazol-2-ylamino)-phenyl]-benzamide]	< 10
Cc1ccc(NC(=O)c2ccc(CO)cc2)cc1Nc1nc(-c2cccnc2)cs1 [Compound 030, 4-Hydroxymethyl-N-[4-methyl-3-(4-pyridin-3-yl-thiazol-2-ylamino)-phenyl]-benzamide]	< 10
Cc1ccc(NC(=O)c2ccccc2I)cc1Nc1nc(-c2cccnc2)cs1 [Compound 032, 2-Iodo-N-[4-methyl-3-(4-pyridin-3-yl-thiazol-2-ylamino)-phenyl]-benzamide]	< 10
Cc1ccc(NC(=O)c2ccc(OS(=O)(=O)c3cccs3)cc2)cc1Nc1nc(-c2cccnc2)cs1 [Compound 042, Thiophene-2-sulfonic acid 4-[4-methyl-3-(4-pyridin-3-yl-thiazol-2-ylamino)-phenylcarbamoyl]-phenyl ester]	< 10

Structure (SMILES)	IC50 [µM]
Cc1ccc(NC(=O)c2ccc(OS(=O)(=O)c3ccc(I)cc3)cc2)cc1Nc1nc(-c2cccnc2)cs1 [Compound 043, 4-Iodo-benzenesulfonic acid 4-[4-methyl-3-(4-pyridin-3-yl-thiazol-2-ylamino)-phenylcarbamoyl]-phenyl ester]	< 10
Cc1ccc(NC(=O)c2cccc(F)c2)cc1Nc1nc(-c2cccnc2)cs1 [Compound 045, 3-Fluoro-N-[4-methyl-3-(4-pyridin-3-yl-thiazol-2-ylamino)-phenyl]-benzamide]	< 10
Cc1ccc(NC(=O)c2ccc(N(C)C)cc2)cc1Nc1nc(-c2cccnc2)cs1 [Compound 047, 4-Dimethylamino-N-[4-methyl-3-(4-pyridin-3-yl-thiazol-2-ylamino)-phenyl]-benzamide]	< 10
Cc1ccc(F)c(C(=O)Nc2ccc(C)c(Nc3nc(-c4cccnc4)cs3)c2)c1 [Compound 048, 2-Fluoro-5-methyl-N-[4-methyl-3-(4-pyridin-3-yl-thiazol-2-ylamino)-phenyl]-benzamide]	< 10
Cc1ccc(NC(=O)c2ccc(C(C)(C)C)cc2)cc1Nc1nc(-c2cccnc2)cs1 [Compound 049, 4-tert-Butyl-N-[4-methyl-3-(4-pyridin-3-yl-thiazol-2-ylamino)-phenyl]-benzamide]	< 10
Cc1ccc(NC(=O)c2cccc(OCCN3CCOCC3)c2)cc1Nc1nc(-c2cccnc2)cs1 [Compound 052, N-[4-Methyl-3-(4-pyridin-3-yl-thiazol-2-ylamino)-phenyl]-3-(2-morpholin-4-yl-ethoxy)-benzamide]	< 10
Cc1ccc(NC(=O)c2ccc(-c3ccncc3)cc2)cc1Nc1nc(-c2cccnc2)cs1 [Compound 053]	< 10
Cc1ccc(NC(=O)c2cccc(C(F)(F)F)c2F)cc1Nc1nc(-c2cccnc2)cs1 [Compound 055, 2-Fluoro-N-[4-methyl-3-(4-pyridin-3-yl-thiazol-2-ylamino)-phenyl]-3-trifluoromethyl-benzamide]	< 10
Cc1ccc(NC(=O)c2ccc(OS(=O)(=O)c3cccc(F)c3)cc2)cc1Nc1nc(-c2cccnc2)cs1 [Compound 056, 3-Fluoro-benzenesulfonic acid 4-[4-methyl-3-(4-pyridin-3-yl-thiazol-2-ylamino)-phenylcarbamoyl]-phenyl ester]	< 10
Cc1cccc(C(=O)Nc2ccc(C)c(Nc3nc(-c4cccnc4)cs3)c2)c1 [Compound 061, 3-Methyl-N-[4-methyl-3-(4-pyridin-3-yl-thiazol-2-ylamino)-phenyl]-benzamide]	< 10
Cc1ccc(NC(=O)c2cccc(-c3ccccc3)c2)cc1Nc1nc(-c2cccnc2)cs1 [Compound 062, Biphenyl-3-carboxylic acid [4-methyl-3-(4-pyridin-3-yl-thiazol-2-ylamino)-phenyl]-amide]	< 10
Cc1ccc(NC(=O)c2ccncc2)cc1Nc1nc(-c2cccnc2)cs1 [Compound 063, N-[4-Methyl-3-(4-pyridi-3-yl-thiazol-2-ylamino)-phenyl]-isonicotinarnide]	< 10
Cc1ccc(NC(=O)c2cc(Cl)nc(Cl)c2)cc1Nc1nc(-c2cccnc2)cs1 [Compound 064, 2,6-Dichloro-N-[4-4-methyl-3-(4-pyridin-3-yl-thiazol-2-ylamino)-phenyl]-isonicotinamide]	< 10
Cc1ccc(NC(=O)c2cccc(C(F)(F)F)c2)cc1Nc1nc(-c2cccnc2)cs1 [Compound 065, N-[4-Methyl-3-(4-pyridin-3-yl-thiazol-2-ylamino)-phenyl]-3-trifluoromethyl-benzamide]	< 10
Cc1ccc(NC(=O)c2cc(Br)c(CN3CCN(C)CC3)c(Br)c2)cc1Nc1nc(-c2cccnc2)cs1 [Compound 067, 3,5-Dibromo-4-(4-methyl-piperazin-1-ylmethyl)-N-[4-methyl-3-(4-pyridin-3-yl-thiazol-2-ylamino)-phenyl]-benzamide]	< 10
Cc1ccc(NC(=O)c2ccc(CN(C(C)C)C(C)C)cc2)cc1Nc1nc(-c2cccnc2)cs1 [Compound 072, 4-[(Diisopropylamino)-methyl]-N-[4-methyl-3-(4-pyridin-3-yl-thiazol-2-ylamino)-phenyl]-benzamide]	< 10
Cc1ccc(NC(=O)c2ccc(CNC(=O)OC(C)(C)C)cc2)cc1Nc1nc(-c2cccnc2)cs1 [Compound 073, {4-[4-Methyl-3-(4-pyridin-3-yl-thiazol-2-ylamino)-phenylcarbamoyl]-benzyl}-carbarnic acid tert-butyl ester]	< 10
Cc1ccc(NC(=O)c2ccc(CN3CCN(C)CC3)c(F)c2)cc1Nc1nc(-c2cccnc2)cs1 [Compound 074, 3-Fluoro-4-(4-methyl-piperazin-1-ylmethyl)-N-[4-methyl-3-(4-pyridin-3-yl-thiazol-2-ylarnino)-phenyl]-benzamide]	< 10
Cc1ccc(NC(=O)c2ccc(CN3CCN(C)CC3)c(C(F)(F)F)c2)cc1Nc1nc(-c2cccnc2)cs1 [Compound 075, 4-(4-Methyl-piperazin-1-ylmethyl)-N-[4-methyl-3-(4-pyridin-3-yl-thiazo1-2-ylmethyl)-phenyl]-3-trifluoromethyl-benzarnide]	< 10
